PubChem BioAssay AID330 (DTP/NCI, 2004)
The list shows only some results of the screen, not a fair sample: it gathers tests that were run many times, whatever their T/C, doses with no T/C, and many T/C values between a quarter and a half above the control. Further doses and runs are listed elsewhere. T/C is the treated group as % of the vehicle group. Some doses have a count of surviving animals in place of a T/C: the source files T/C as zero there, which appears to mark a toxic dose or a test without result, not a measured value. Some doses without a T/C left all or most animals alive at the check, yet need not have been tolerated: survival well below the control is almost never listed, so the zero probably covers shortened survival too. Counts of survivors are from the toxicity check (mostly the fifth day) where no day follows; animals may have died later. Schedule codes are those of the source, taken here to give the interval after Q, in days (D) or hours (H), and the number of doses after X. Some entries hold several experiments; the results are listed from low to high. For survival time, the PubChem record calls one and a half times the control and up active, and a quarter to a half above the control has no call in these data; cut-offs in other NCI protocols can differ. Some T/C values are followed by the survivors on the day toxicity was checked, most often the fifth; without a count, all were alive then.

Tested on: P388 leukemia ip, CD2F1 mice, survival T/C
Experiment: NCI In Vivo Anticancer Drug Screen. Data for tumor model P388 Leukemia (intraperitoneal) in CD2F1 (CDF1) mice
Details: T/C endpoint: median survival time, higher T/C = longer survival
[1] = dose: 100.0 mg/kg/injection, schedule: Q01DX009 (ip), vehicle: saline with Tween-80
[2] = dose: 100.0 mg/kg/injection, schedule: Q01DX005 (ip), vehicle: saline with Tween-80
[3] = dose: 200.0 mg/kg/injection, schedule: Q01DX005 (ip), vehicle: saline with Tween-80
[4] = dose: 120.0 mg/kg/injection, schedule: Q01DX005 (ip), vehicle: saline with Tween-80
[5] = dose: 240.0 mg/kg/injection, schedule: Q01DX005 (ip), vehicle: saline with Tween-80
[6] = dose: 1.2 mg/kg/injection, schedule: Q01DX005 (ip), vehicle: acid diluted with saline
[7] = dose: 240.0 mg/kg/injection, schedule: Q01DX005 (ip), vehicle: Klucel (hydroxypropylcellulose) (HPC)
[8] = dose: 200.0 mg/kg/injection, schedule: Q01DX005 (ip), vehicle: Klucel (hydroxypropylcellulose) (HPC)
[9] = dose: 100.0 mg/kg/injection, schedule: Q01DX009 (ip), vehicle: saline
[10] = dose: 200.0 mg/kg/injection, schedule: Q01DX009 (ip), vehicle: saline

**Q.** Which survivor count (dose: 100.0 mg/kg/injection, schedule: Q04DX002 (ip), vehicle: saline) does the source give for `CCCCCCCC/C=C/CCCCCCCC(=O)NCCCN` (tested in a mixture with another compound) here?
**A.** 4 of 6

**Q.** With `CCCCCCCCCCCCCCCCN1C(=O)/C(=C\c2ccc(O)cc2)SC1=Nc1ccccc1` as the compound, how does the survivor count [1] read?
**A.** 6 of 6

**Q.** Which results are given for `O=C(CBr)C1(Br)CCN(Cc2ccccc2)CC1`?
**A.** survivor count (dose: 100.0 mg/kg/injection, schedule: Q01DX009 (ip), vehicle: Klucel (hydroxypropylcellulose) (HPC)): 0 of 6; survivor count (dose: 200.0 mg/kg/injection, schedule: Q01DX009 (ip), vehicle: Klucel (hydroxypropylcellulose) (HPC)): 0 of 6; survivor count (dose: 400.0 mg/kg/injection, schedule: Q01DX009 (ip), vehicle: Klucel (hydroxypropylcellulose) (HPC)): 0 of 6

**Q.** With `C1OC1C1CO1` (configuration not stated) as the compound, how does the T/C (dose: 10.0 mg/kg/injection, schedule: Q01DX009 (ip), vehicle: saline) read?
**A.** 131 % of control

**Q.** Which results are given for `Cc1cc(C=C2C(=O)NC(=S)NC2=O)cc(C)c1O`?
**A.** T/C (dose: 50.0 mg/kg/injection, schedule: Q01DX005 (ip), vehicle: saline with Tween-80): 107, 110, 120, 126 % of control [5 of 6 alive]; survivor count [2]: 1 of 5, 2 of 6, 5 of 6; survivor count [3]: 0 of 5

**Q.** How did the survivor count (dose: 60.0 mg/kg/injection, schedule: Q01DX005 (ip), vehicle: Klucel (hydroxypropylcellulose) (HPC)) turn out when `Cc1ccc(-c2cc(=O)c3cc(C)c(C)c(C#N)c3o2)cc1` was run?
**A.** 6 of 6

**Q.** For `COC1=NC=CC=CC1`, which survivor count (dose: 50.0 mg/kg/injection, schedule: Q01DX009 (ip), vehicle: saline with Tween-80) is on record?
**A.** 6 of 6

**Q.** What about the survivor count [1] of the same compound?
**A.** 1 of 6

**Q.** What about the survivor count (dose: 200.0 mg/kg/injection, schedule: Q01DX009 (ip), vehicle: saline with Tween-80) of the same compound?
**A.** 0 of 6

**Q.** How did the survivor count (dose: 120.0 mg/kg/injection, schedule: Q01DX005 (ip), vehicle: Klucel + Tween-80) turn out when `[O-][n+]1c(-c2ccccc2)c(Cl)c(-c2ccccc2)n1O` was run?
**A.** 2 of 6

**Q.** What about the survivor count (dose: 240.0 mg/kg/injection, schedule: Q01DX005 (ip), vehicle: Klucel + Tween-80) of the same compound?
**A.** 0 of 6

**Q.** With `CC(=O)OC1CC(n2cc(C)c(=O)[nH]c2=O)OC1COP(=O)(N1CC1(C)C)N1CC1(C)C` (configuration not stated) as the compound, how does the T/C (dose: 50.0 mg/kg/injection, schedule: Q04DX003 (ip), vehicle: saline with Tween-80) read?
**A.** 138 % of control

**Q.** What about the T/C (dose: 100.0 mg/kg/injection, schedule: Q04DX003 (ip), vehicle: saline with Tween-80) of the same compound?
**A.** 141 % of control

**Q.** With `O=C1OC(=O)C2C1C1c3ccccc3C2(O)c2ccccc21` (configuration not stated) as the compound, how does the survivor count [4] read?
**A.** 3 of 6

**Q.** What about the survivor count [5] of the same compound?
**A.** 1 of 6

**Q.** How did the survivor count (dose: 400.0 mg/kg/injection, schedule: Q04DX003 (ip), vehicle: saline) turn out when `CCC(=O)Nc1ccc(N)cc1` was run?
**A.** 2 of 6

**Q.** What does the source list for `COc1ccc2c(C)c3[n+](cc2c1OC)CCc1cc2c(cc1-3)OCO2`?
**A.** survivor count (dose: 50.0 mg/kg/injection, schedule: Q04DX003 (ip), vehicle: distilled water + Tween-80): 0 of 5; survivor count (dose: 100.0 mg/kg/injection, schedule: Q04DX003 (ip), vehicle: distilled water + Tween-80): 0 of 5; survivor count (dose: 200.0 mg/kg/injection, schedule: Q04DX003 (ip), vehicle: distilled water + Tween-80): 0 of 5; survivor count (dose: 400.0 mg/kg/injection, schedule: Q04DX003 (ip), vehicle: distilled water + Tween-80): 0 of 5

**Q.** What does the source list for `COC1=C(C)C(=O)C2=C(C1=O)C(CO)N1C(C#N)C3CC4C(C1C2N1CCOC41)N3C` (configuration not stated)?
**A.** T/C (dose: 0.3 mg/kg/injection, schedule: Q01DX005 (ip), vehicle: acid diluted with saline): 135 % of control; T/C (dose: 0.6 mg/kg/injection, schedule: Q01DX005 (ip), vehicle: acid diluted with saline): 130 % of control; T/C [6]: 146 % of control [5 of 6 alive]; survivor count [6]: 4 of 6; T/C (dose: 1.5 mg/kg/injection, schedule: Q01DX005 (ip), vehicle: saline + alcohol): 147 % of control; survivor count (dose: 1.6 mg/kg/injection, schedule: Q01DX005 (ip), vehicle: saline + alcohol): 4 of 6; survivor count (dose: 2.4 mg/kg/injection, schedule: Q01DX005 (ip), vehicle: acid diluted with saline): 0 of 6; survivor count (dose: 2.5 mg/kg/injection, schedule: Q01DX005 (ip), vehicle: acid diluted with saline): 1 of 6; survivor count (dose: 3.0 mg/kg/injection, schedule: Q01DX005 (ip), vehicle: saline + alcohol): 0 of 5; survivor count (dose: 3.2 mg/kg/injection, schedule: Q01DX005 (ip), vehicle: saline + alcohol): 0 of 6; survivor count (dose: 5.0 mg/kg/injection, schedule: Q01DX005 (ip), vehicle: acid diluted with saline): 0 of 6; survivor count (dose: 6.0 mg/kg/injection, schedule: Q01DX005 (ip), vehicle: saline + alcohol): 0 of 5; survivor count (dose: 10.0 mg/kg/injection, schedule: Q01DX005 (ip), vehicle: acid diluted with saline): 0 of 6; survivor count (dose: 20.0 mg/kg/injection, schedule: Q01DX005 (ip), vehicle: acid diluted with saline): 0 of 6

**Q.** How did the survivor count (dose: 120.0 mg/kg/injection, schedule: Q01DX005 (ip), vehicle: Klucel (hydroxypropylcellulose) (HPC)) turn out when `C/C(=N\N)c1nc2ccccc2[nH]1` was run?
**A.** 0 of 6

**Q.** And the survivor count [7]?
**A.** 0 of 6

**Q.** `[N-]=[N+]=Nc1c2c(nc3ccccc13)CCCC2` was tested. Which survivor count [5] did it give?
**A.** 1 of 6

**Q.** For `CC(=O)OCC1OC(OC2C=C(O[Si](C)(C)C)C[C@H]3C(=O)C=CC(=O)[C@@H]23)C(OC(C)=O)C(OC(C)=O)C1OC(C)=O` (some centres not stated), which survivor count [4] is on record?
**A.** 0 of 6

**Q.** And the survivor count [5]?
**A.** 0 of 6

**Q.** With `COc1ccc(NC(=O)Nc2ccc(-c3ccc(NC(=O)Nc4ccc(OC)cc4)c(C)c3)cc2C)cc1` as the compound, how does the survivor count [2] read?
**A.** 5 of 5

**Q.** Which results are given for `O=C1NC2(CCCCC2)C(=O)N1CCCCCN(CCCl)CCCl`?
**A.** T/C (dose: 6.0 mg/kg/injection, schedule: Q01DX005 (ip), vehicle: saline): 131 % of control; T/C (dose: 10.0 mg/kg/injection, schedule: Q01DX005 (ip), vehicle: saline): 133 % of control; T/C (dose: 12.0 mg/kg/injection, schedule: Q01DX005 (ip), vehicle: saline): 137 % of control; T/C (dose: 20.0 mg/kg/injection, schedule: Q01DX005 (ip), vehicle: saline): 136 % of control; T/C (dose: 24.0 mg/kg/injection, schedule: Q01DX005 (ip), vehicle: saline): 149 % of control [5 of 6 alive]; survivor count (dose: 80.0 mg/kg/injection, schedule: Q01DX005 (ip), vehicle: saline): 2 of 6

**Q.** With `CCNC1CCC(Nc2ccnc3cc(Cl)ccc23)CC1` (configuration not stated) as the compound, how does the survivor count [8] read?
**A.** 2 of 6

**Q.** How did the survivor count [1] turn out when `CCC(=O)Nc1ncc([N+](=O)[O-])s1` was run?
**A.** 6 of 6

**Q.** With `CCCCc1ccc(C(N)=O)nc1` as the compound, how does the survivor count [8] read?
**A.** 0 of 6

**Q.** Which results are given for `Cc1ccc(/C=N\NC(=O)NN)cc1`?
**A.** survivor count (dose: 100.0 mg/kg/injection, schedule: Q01DX005 (ip), vehicle: Klucel (hydroxypropylcellulose) (HPC)): 3 of 6; survivor count [8]: 0 of 6

**Q.** Which survivor count [7] does the source give for `N=C(N)c1ccc(N=Nc2ccc(N)cc2N)cc1` here?
**A.** 3 of 6

**Q.** With `CCCCCCCCCCCC1=C(O)C(=O)C(Cl)=C(O)C1=O` as the compound, how does the survivor count [2] read?
**A.** 4 of 6

**Q.** And the survivor count [3]?
**A.** 0 of 6

**Q.** For `CCCNC(=O)OCC1=C(COC(=O)NCCC)C2OC1C(C(=O)OC)=C2C(=O)OC`, which survivor count (dose: 100.0 mg/kg/injection, schedule: Q01DX009 (ip), vehicle: distilled water + Tween-80) is on record?
**A.** 3 of 6

**Q.** What about the survivor count (dose: 200.0 mg/kg/injection, schedule: Q01DX009 (ip), vehicle: distilled water + Tween-80) of the same compound?
**A.** 0 of 6

**Q.** For `CCC[CH2][Sn]([CH3])([CH3])[CH2]CC[N+](C)(C)C`, which survivor count (dose: 50.0 mg/kg/injection, schedule: Q01DX009 (ip), vehicle: saline) is on record?
**A.** 3 of 6

**Q.** What about the survivor count [9] of the same compound?
**A.** 0 of 6

**Q.** And the survivor count [10]?
**A.** 0 of 6

**Q.** `O=C(c1ccccc1)c1cccc[n+]1Cc1ccccc1` was tested. Which survivor count [9] did it give?
**A.** 6 of 6

**Q.** What about the survivor count [10] of the same compound?
**A.** 0 of 6

**Q.** With `COC(=O)/C(C1=C(Br)C(=O)C(C)=C(Br)C1=O)=C1/CCCN1` as the compound, how does the survivor count (dose: 150.0 mg/kg/injection, schedule: Q04DX002 (ip), vehicle: Klucel (hydroxypropylcellulose) (HPC)) read?
**A.** 1 of 6

**Q.** What about the survivor count (dose: 300.0 mg/kg/injection, schedule: Q04DX002 (ip), vehicle: Klucel (hydroxypropylcellulose) (HPC)) of the same compound?
**A.** 2 of 6
